Literature values in patent US20140200276A1 (iCeutica, Inc., priority 2009, published 2014).

By UniProt entry, the sequences of proteins in these tests, tags left out. Residues count along the entry.
UniProt P02768, 25-609: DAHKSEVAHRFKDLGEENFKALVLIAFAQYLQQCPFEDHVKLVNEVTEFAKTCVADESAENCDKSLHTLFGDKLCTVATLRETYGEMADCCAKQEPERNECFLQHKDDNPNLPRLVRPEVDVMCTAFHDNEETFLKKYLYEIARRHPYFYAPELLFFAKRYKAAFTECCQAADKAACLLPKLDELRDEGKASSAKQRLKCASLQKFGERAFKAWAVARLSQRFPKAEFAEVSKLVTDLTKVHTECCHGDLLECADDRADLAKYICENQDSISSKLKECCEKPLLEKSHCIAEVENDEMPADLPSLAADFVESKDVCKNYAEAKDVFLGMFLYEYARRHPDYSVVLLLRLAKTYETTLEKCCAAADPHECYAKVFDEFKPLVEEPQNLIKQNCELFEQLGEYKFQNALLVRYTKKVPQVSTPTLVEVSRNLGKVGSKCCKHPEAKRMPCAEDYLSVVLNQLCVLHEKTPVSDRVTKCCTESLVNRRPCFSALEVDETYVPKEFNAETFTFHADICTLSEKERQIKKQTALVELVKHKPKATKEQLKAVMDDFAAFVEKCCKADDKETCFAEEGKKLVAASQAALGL

Columns and labels:
[1] = current commercial formulations of naproxen
albumin = albumin (Homo sapiens, UniProt P02768); details: at therapeutic levels

Question: Which “Tmax of current commercial formulations” value [1] does the source give for `COc1ccc2cc([C@H](C)C(=O)O)ccc2c1` [naproxen] here?
Answer: 1 to 4 h

Question: What about the albumin-bound (albumin) of the same compound?
Answer: greater than 99%
